This is a selection; strong and weak results do not stand in their true shares. At the low end of the ranking the order means little.
molecular target: T1, FLI1 (UniProt Q01543); assay: DAPPL (digital affinity profiling via proximity ligation, sequencing); details: 10 mM Tris-HCl pH 7.5, 50 mM NaCl, 1 mM DTT, 4% glycerol, room temperature, 30 min; GST-TFs on glutathione beads, 16-mer random dsDNA library, 0.1% …; high values mean tight binding; double strand, one strand shown; scale: fold enrichment (6-mer frequency, TF over GST control)
T1 sequence: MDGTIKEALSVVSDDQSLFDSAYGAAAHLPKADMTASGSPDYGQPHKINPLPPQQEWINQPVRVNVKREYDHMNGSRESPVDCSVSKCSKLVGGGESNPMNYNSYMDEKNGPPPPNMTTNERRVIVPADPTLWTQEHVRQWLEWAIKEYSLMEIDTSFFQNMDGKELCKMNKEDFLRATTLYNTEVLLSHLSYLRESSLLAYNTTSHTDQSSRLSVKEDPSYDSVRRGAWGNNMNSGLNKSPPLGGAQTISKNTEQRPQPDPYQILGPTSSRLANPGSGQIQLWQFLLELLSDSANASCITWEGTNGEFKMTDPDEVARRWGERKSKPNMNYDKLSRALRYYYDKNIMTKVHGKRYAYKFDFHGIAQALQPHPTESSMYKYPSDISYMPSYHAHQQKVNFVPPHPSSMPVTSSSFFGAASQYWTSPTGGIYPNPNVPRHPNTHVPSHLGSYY

Chains of the proteins cited; added tags and fusions are not shown. Lines headed by an entry give the natural chain unless they say otherwise; changes in a name come on top.
UniProt P41161: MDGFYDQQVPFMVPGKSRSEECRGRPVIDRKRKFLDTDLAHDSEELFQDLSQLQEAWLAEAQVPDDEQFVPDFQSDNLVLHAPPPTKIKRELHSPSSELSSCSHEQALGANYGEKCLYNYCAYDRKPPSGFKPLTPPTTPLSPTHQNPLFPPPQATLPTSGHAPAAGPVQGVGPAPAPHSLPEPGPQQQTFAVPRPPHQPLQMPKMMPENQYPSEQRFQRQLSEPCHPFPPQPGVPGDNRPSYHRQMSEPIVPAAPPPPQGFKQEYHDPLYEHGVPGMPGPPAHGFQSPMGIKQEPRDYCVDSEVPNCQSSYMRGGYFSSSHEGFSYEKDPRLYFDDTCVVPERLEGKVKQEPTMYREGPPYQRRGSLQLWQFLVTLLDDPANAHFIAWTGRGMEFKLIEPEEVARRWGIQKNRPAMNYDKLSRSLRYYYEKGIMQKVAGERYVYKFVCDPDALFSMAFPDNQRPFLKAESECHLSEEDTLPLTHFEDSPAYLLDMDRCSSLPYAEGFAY

Sequence | binding signal
TGACAA | 1.18
AATATA | 1.28
TGATAT | 1.13
CCGCTC | 1.53
ATTACA | 1.14
CCCCTT | 1.48
CGCCTG | 1.11
GCACAA | 1.1
CCATCC | 1.24
ACGTCC | 1.59
CTGTCT | 1.35
GCCCTA | 1.29
AATTCG | 1.29
CTGATG | 1.75
GCAGCT | 0.999
CTCTAC | 1.51
CTGTTC | 1.47

molecular target: ETV5 (UniProt P41161); assay: as above; details: 10 mM Tris-HCl pH 7.5, 50 mM NaCl, 1 mM DTT, 4% glycerol, room temperature, 30 min; GST-TFs on glutathione beads, 16-mer random dsDNA library, 0.1% …; high values mean tight binding; double strand, one strand shown; scale: fold enrichment (6-mer frequency, TF over GST control)

Sequence | binding signal
TGACAA | 1.22
CGCTTG | 1.06
CTGGTA | 1.25
AATATA | 1.33
GTTCGC | 0.996
GCCTCT | 1.39
TGATAT | 1.1
CCTTTG | 1.3
AAACCT | 1.13
CTGCTC | 1.26
ATTCGA | 1.28
CCCCAA | 1.12
TATCAC | 1.24
CCGCTC | 1.46
CGAGCA | 1.1
ATTACA | 1.07
CCCCTT | 1.62
TGCCAT | 1.03
CGCCTG | 1.18
GCACAA | 1.07

Sequence | binding signal
CCATCC | 1.27
ACGTCC | 1.65
TGTCAT | 1.18
TCCACC | 1.16
CTGTCT | 1.4
TCCAAG | 1.07
GCCCTA | 1.16
TGATTA | 0.974
TGCCTT | 1.36
AATTCG | 1.31
CCACCC | 1.25
TCACCC | 1.18
CTGATG | 1.65
CCTTAC | 1.36
TTCGCT | 1.24
GCAGCT | 1.08
CTCTAC | 1.33
TATGAT | 1.24
CTGTTC | 1.39
GCTCTC | 1.28
